Laboratory results published in patent US9155309B2, “Virus inactivating sheet” (priority 2009, dated 2015).
Some results were stated once for a whole list of compounds, not compound by compound. At least one structure is not confirmed: it was looked up by name or label, or the drawing left a doubt.

Each compound was assayed on influenza virus (influenza A/Kitakyusyu/159/93(H3N2)). Details: material concentration 5%.
Type: cell-based
With `[Cl][Cu]` [Reference Example 22, COPPER(I) CHLORIDE] the “virus inactivated (from HA titer)” value was ≥ 98.44%. In the case of `[I][Ge]([I])([I])[I]` [compound 5, GERMANIUM(IV) IODIDE], the “virus inactivated (from HA titer)” value is reported as ≥ 98.44%. In the case of `[I][Ge][I]` [compound 6, GERMANIUM(II) IODIDE], the “virus inactivated (from HA titer)” value is reported as ≥ 98.44%. `[I][Sn][I]` [compound 7, TIN(II) IODIDE] was tested, and the “virus inactivated (from HA titer)” value was ≥ 98.44%. For `[I][Sn]([I])([I])[I]` [compound 8, TIN(IV) IODIDE], the “virus inactivated (from HA titer)” value was ≥ 98.44%. In the case of `[Fe+2].[I-].[I-]` [compound 16, IRON(II) IODIDE], the “virus inactivated (from HA titer)” value is reported as ≥ 98.44%. In the case of `[Co+2].[I-].[I-]` [compound 17, COBALT(II) IODIDE], the “virus inactivated (from HA titer)” value is reported as ≥ 98.44%. For `[I-].[I-].[Zn+2]` [compound 19, ZINC(II) IODIDE], the “virus inactivated (from HA titer)” value was ≥ 98.44%. With `[I][In]([I])[I]` [compound 21, INDIUM(III) IODIDE] the “virus inactivated (from HA titer)” value was ≥ 98.44%. For `[Cu][Br]` [compound 23, COPPER(I) BROMIDE], the “virus inactivated (from HA titer)” value was ≥ 98.44%.
